# From publication PMC3990711
# Protein sequences, listed by entry. Tags and fused reporters are not part of them. Residues count along the entry.
# UniProt P15187, residues 1-296: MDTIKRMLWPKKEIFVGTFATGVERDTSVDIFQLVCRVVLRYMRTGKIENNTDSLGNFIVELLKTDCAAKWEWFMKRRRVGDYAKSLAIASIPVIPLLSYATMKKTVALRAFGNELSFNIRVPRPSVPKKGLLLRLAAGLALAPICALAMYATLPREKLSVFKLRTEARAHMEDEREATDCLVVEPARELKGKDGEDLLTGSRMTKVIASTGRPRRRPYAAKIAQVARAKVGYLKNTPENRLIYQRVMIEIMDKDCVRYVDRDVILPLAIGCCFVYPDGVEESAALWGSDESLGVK
# UniProt P20447: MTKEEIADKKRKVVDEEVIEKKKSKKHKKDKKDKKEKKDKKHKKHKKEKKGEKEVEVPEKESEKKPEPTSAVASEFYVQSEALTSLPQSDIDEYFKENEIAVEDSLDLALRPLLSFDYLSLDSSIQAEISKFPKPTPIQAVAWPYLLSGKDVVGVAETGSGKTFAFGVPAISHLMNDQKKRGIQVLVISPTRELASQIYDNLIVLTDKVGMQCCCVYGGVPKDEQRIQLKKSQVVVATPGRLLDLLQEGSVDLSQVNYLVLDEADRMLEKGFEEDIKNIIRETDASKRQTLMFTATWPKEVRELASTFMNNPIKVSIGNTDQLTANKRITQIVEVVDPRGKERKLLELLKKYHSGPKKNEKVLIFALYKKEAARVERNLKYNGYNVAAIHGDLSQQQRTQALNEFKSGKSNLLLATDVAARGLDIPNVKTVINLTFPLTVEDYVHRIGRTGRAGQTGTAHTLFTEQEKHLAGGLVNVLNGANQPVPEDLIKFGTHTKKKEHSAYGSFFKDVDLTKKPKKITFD
# No constants are given. Whether binding was seen depends on the method and setting. For some of these results: In cells and extracts the contact can be indirect. Some binding calls cover weakened binding; strength is not graded here. For some of these results: Where a sequence is shown, tags or fusion partners need not be part of it.
# B1: His6-tagged AtRH5 DEAD-box helicase (expressed in yeast) (protein, UniProt Q9C551 1-537)
# chain: MAGQKQELPVSGEPLAVESPMTNKKKKKSKKNKHTEENHEVEEVPQEVTNGVEEELSNKEKKKKRKREEKESEKNKKKDVPEKKLEAEDLGEGESEQQKVVVTGKGVEEAKYAALKTFAESNLPENVLDCCKTFEKPSPIQSHTWPFLLDGRDLIGIAKTGSGKTLAFGIPAIMHVLKKNKKIGGGSKKVNPTCLVLSPTRELAVQISDVLREAGEPCGLKSICVYGGSSKGPQISAIRSGVDIVIGTPGRLRDLIESNVLRLSDVSFVVLDEADRMLDMGFEEPVRFILSNTNKVRQMVMFSATWPLDVHKLAQEFMDPNPIKVIIGSVDLAANHDVMQIIEVLDERARDQRLIALLEKYHKSQKNRVLVFALYKVEAERLERFLQQRGWKAVSIHGNKAQSERTRSLSLFKEGSCPLLVATDVAARGLDIPDVEVVINYTFPLTTEDYVHRIGRTGRAGKKGVAHTFFTPLNKGLAGELVNVLREAGQVVPADLLKFGTHVKKKESKLYGAHFKEIAADAPKATKITFDNSDDED
# B2: AtRH5, split-ubiquitin prey (protein, UniProt Q9C551 1-537)
# chain: B1 chain
# B3: Fal1p DEAD-box helicase, split-ubiquitin prey (protein, UniProt Q12099 1-399)
# chain: MSFDREEDQKLKFKTSKKLKVSSTFESMNLKDDLLRGIYSYGFEAPSSIQSRAITQIISGKDVIAQAQSGTGKTATFTIGLLQAIDLRKKDLQALILSPTRELASQIGQVVKNLGDYMNVNAFAITGGKTLKDDLKKMQKHGCQAVSGTPGRVLDMIKKQMLQTRNVQMLVLDEADELLSETLGFKQQIYDIFAKLPKNCQVVVVSATMNKDILEVTRKFMNDPVKILVKRDEISLEGIKQYVVNVDKEEWKFDTLCDIYDSLTITQCVIFCNTKKKVDWLSQRLIQSNFAVVSMHGDMKQEERDKVMNDFRTGHSRVLISTDVWARGIDVQQVSLVINYDLPEIIENYIHRIGRSGRFGRKGVAINFITKADLAKLREIEKFYSIKINPMPANFAELS
# How the values were obtained:
# [1] = target: p33 replication protein, split-ubiquitin bait (cucumber necrosis virus (CNV)) (UniProt P15187); experiment: two-hybrid; membrane-based split-ubiquitin yeast two-hybrid (Dualmembrane kit3), strain NMY51; p33 as bait, helicases as prey; growth on Trp-/Leu-/His- plates, 10-fold serial dilutions
# [2] = target: FLAG-tagged p33 replication protein (cucumber necrosis virus (CNV)) (UniProt P15187); experiment: co-IP; FLAG-p33 and FLAG-p92 affinity-purified on anti-FLAG M2 agarose from solubilised membrane fraction of yeast co-expressing the His6-helicase, with or without the TBSV repRNA; Western blot with anti-His antibody
Molecule,binding [1],binding [2]
"Dbp3p DEAD-box helicase, split-ubiquitin prey (from UniProt P20447 1-523)",binds,–
B1,–,binds
B2,binds,–
B3,binds,–
